{"source": "paper PMC12509985", "about": "“Phosphoglycerate dehydrogenase interacts with and inhibits the protein kinase TAK1 to mitigate septic shock” (The Journal of Biological Chemistry, 2025)", "molecules": {"B1": {"name": "TAK1-Flag, expressed in TLR4-293T cells (enzyme, UniProt Q62073 1-579)", "chain": "MSTASAASSSSSSSASEMIEAPSQVLNFEEIDYKEIEVEEVVGRGAFGVVCKAKWRAKDVAIKQIESESERKAFIVELRQLSRVNHPNIVKLYGACLNPVCLVMEYAEGGSLYNVLHGAEPLPYYTAAHAMSWCLQCSQGVAYLHSMQPKALIHRDLKPPNLLLVAGGTVLKICDFGTACDIQTHMTNNKGSAAWMAPEVFEGSNYSEKCDVFSWGIILWEVITRRKPFDEIGGPAFRIMWAVHNGTRPPLIKNLPKPIESLMTRCWSKDPSQRPSMEEIVKIMTHLMRYFPGADEPLQYPCQYSDEGQSNSATSTGSFMDIASTNTSNKSDTNMEQVPATNDTIKRLESKLLKNQAKQQSESGRLSLGASRGSSVESLPPTSEGKRMSADMSEIEARIVATAGNGQPRRRSIQDLTVTGTEPGQVSSRSSSPSVRMITTSGPTSEKPARSHPWTPDDSTDTNGSDNSIPMAYLTLDHQLQPLAPCPNSKESMAVFEQHCKMAQEYMKVQTEIALLLQRKQELVAELDQDEKDQQNTSRLVQEHKKLLDENKSLSTYYQQCKKQLEVIRSQQQKRQGTS"}, "B2": {"name": "GST-tagged TAK1, purified recombinant (enzyme, UniProt Q62073 1-579)", "chain": "B1 chain"}, "B3": {"name": "TAK1, endogenous in mouse peritoneal macrophages (enzyme, UniProt Q62073 1-579)", "chain": "B1 chain"}, "B4": {"name": "PHGDH-HA, expressed in TLR4-293T cells (enzyme, UniProt Q61753 1-533)", "chain": "MAFANLRKVLISDSLDPCCRKILQDGGLQVVEKQNLSKEELIAELQDCEGLIVRSATKVTADVINAAEKLQVVGRAGTGVDNVDLEAATRKGILVMNTPNGNSLSAAELTCGMIMCLARQIPQATASMKDGKWDRKKFMGTELNGKTLGILGLGRIGREVATRMQSFGMKTVGYDPIISPEVAASFGVQQLPLEEIWPLCDFITVHTPLLPSTTGLLNDSTFAQCKKGVRVVNCARGGIVDEGALLRALQSGQCAGAALDVFTEEPPRDRALVDHENVISCPHLGASTKEAQSRCGEEIAVQFVDMVKGKSLTGVVNAQALTSAFSPHTKPWIGLAEAMGTLMHAWAGSPKGTIQVVTQGTSLKNAGTCLSPAVIVGLLREASKQADVNLVNAKLLVKEAGLNVTTSHNPGVPGEQGSGECLLTVALAGAPYQAVGLVQGTTPMLQMLNGAVFRPEVPLRRGQPLLVFRAQPSDPGMLPTMIGLLAEAGVQLLSYQTSMVSDGEPWHVMGLSSLLPSLETWKQHVLEAFQFCF"}, "B5": {"name": "PHGDH, endogenous in mouse peritoneal macrophages (enzyme, UniProt Q61753 1-533, looked up)", "chain": "B4 chain", "notes": "phosphoglycerate dehydrogenase (PHGDH), endogenous in mouse peritoneal macrophages; Seen as tetramers and dimers after cross-linking of the lysate; also called endogenous PHGDH; source: endogenous, mouse peritoneal macrophage (PM) extract"}, "B6": {"name": "TAK1 in extracts of TLR4-293T cells transfected with the Flag-PHGDH plasmids (Figure 5F) (enzyme, UniProt O43318 1-606)", "chain": "MSTASAASSSSSSSAGEMIEAPSQVLNFEEIDYKEIEVEEVVGRGAFGVVCKAKWRAKDVAIKQIESESERKAFIVELRQLSRVNHPNIVKLYGACLNPVCLVMEYAEGGSLYNVLHGAEPLPYYTAAHAMSWCLQCSQGVAYLHSMQPKALIHRDLKPPNLLLVAGGTVLKICDFGTACDIQTHMTNNKGSAAWMAPEVFEGSNYSEKCDVFSWGIILWEVITRRKPFDEIGGPAFRIMWAVHNGTRPPLIKNLPKPIESLMTRCWSKDPSQRPSMEEIVKIMTHLMRYFPGADEPLQYPCQYSDEGQSNSATSTGSFMDIASTNTSNKSDTNMEQVPATNDTIKRLESKLLKNQAKQQSESGRLSLGASRGSSVESLPPTSEGKRMSADMSEIEARIAATTAYSKPKRGHRKTASFGNILDVPEIVISGNGQPRRRSIQDLTVTGTEPGQVSSRSSSPSVRMITTSGPTSEKPTRSHPWTPDDSTDTNGSDNSIPMAYLTLDHQLQPLAPCPNSKESMAVFEQHCKMAQEYMKVQTEIALLLQRKQELVAELDQDEKDQQNTSRLVQEHKKLLDENKSLSTYYQQCKKQLEVIRSQQQKRQGTS"}}, "key": {"[1]": {"molecular_target": "T1, PHGDH-HA, expressed in TLR4-293T cells (UniProt Q61753)", "T1 sequence": "B4 chain", "test": "co-IP; PHGDH-HA precipitated with anti-HA-agarose from TLR4-293T extracts; without or with LPS 30 min (Fig. 4C), LPS for the indicated times (Fig. 4G), pretreated with 15 μM CBR-5884 for 6 h then LPS 30 min (Fig. 5B); immunoblot"}, "[2]": {"molecular_target": "T1, PHGDH-HA, expressed in TLR4-293T cells", "test": "co-IP; PHGDH-HA precipitated with anti-HA-agarose from TLR4-293T extracts; without or with LPS 30 min (Fig. 4C), LPS for the indicated times (Fig. 4G), pretreated with 15 μM CBR-5884 for 6 h then LPS 30 min (Fig. 5B); immunoblot", "remark": "listed apart in the source"}, "[3]": {"molecular_target": "T2, His-tagged PHGDH, purified recombinant (UniProt Q61753)", "T2 sequence": "B4 chain", "test": "pull-down; His pull-down: purified His-tagged PHGDH proteins and GST-tagged TAK1 mixed, pulled down with TALON Metal Affinity Resins, eluate analysed by SDS-PAGE; purified GST/His as controls; both purified"}, "[4]": {"molecular_target": "T3, His-tagged PHGDH-(286–533), purified recombinant (UniProt Q61753)", "T3 sequence": "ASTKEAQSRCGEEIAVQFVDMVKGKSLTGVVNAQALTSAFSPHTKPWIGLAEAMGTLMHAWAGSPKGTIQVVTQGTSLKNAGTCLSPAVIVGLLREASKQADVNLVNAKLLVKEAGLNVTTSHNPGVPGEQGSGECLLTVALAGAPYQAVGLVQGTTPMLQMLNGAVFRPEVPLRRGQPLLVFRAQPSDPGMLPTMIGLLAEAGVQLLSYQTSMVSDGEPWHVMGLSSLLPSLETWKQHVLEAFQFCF", "test": "pull-down; His pull-down: purified His-tagged PHGDH proteins and GST-tagged TAK1 mixed, pulled down with TALON Metal Affinity Resins, eluate analysed by SDS-PAGE; purified GST/His as controls; both purified"}, "[5]": {"molecular_target": "T4, PHGDH, endogenous in mouse peritoneal macrophages (mouse (endogenous in peritoneal macrophages)) (UniProt Q61753)", "T4 sequence": "B4 chain", "test": "co-IP; endogenous PHGDH precipitated with an anti-PHGDH antibody from PM extracts without or with LPS 30 min; immunoblot"}, "[6]": {"molecular_target": "T5, TAK1-Flag, expressed in TLR4-293T cells (UniProt Q62073)", "T5 sequence": "B1 chain", "test": "co-IP; TAK1-Flag precipitated with anti-Flag beads from TLR4-293T extracts without or with LPS 30 min; immunoblot"}, "[7]": {"molecular_target": "T6, TAK1, endogenous in mouse peritoneal macrophages (mouse (endogenous in peritoneal macrophages)) (UniProt Q62073)", "T6 sequence": "B1 chain", "test": "co-IP; endogenous TAK1 precipitated with an anti-TAK1 antibody from PM extracts without or with LPS 30 min; immunoblot"}, "[8]": {"molecular_target": "T7, PHGDH-Flag, expressed in TLR4-293T cells (UniProt Q61753)", "T7 sequence": "B4 chain", "test": "co-IP; Flag-PHGDH precipitated with anti-Flag beads from TLR4-293T cells transfected with Ctrl-Flag, PHGDH-Flag or PHGDH(V425M)-Flag; immunoblot"}}, "note": "Where two headings read alike, the source gives them in different places. No constants are given. Whether binding was seen depends on the method and setting. For some assays here: Binding seen in cells or lysates may run through a third protein. Some results given as binding are weak or reduced against the parent protein; the word gives no strength. For some assays here: Tags and fused reporters may be left off the sequences shown."}
{"molecule": "DNAJA1 (molecular chaperone) in TLR4-293T cell extracts (from UniProt P31689 1-397)", "values": [{"measurement": "binding", "setting": "[1]", "value": "binds"}]}
{"molecule": "B1", "values": [{"measurement": "binding", "setting": "[2]", "value": "binds"}]}
{"molecule": "B2", "values": [{"measurement": "binding", "setting": "[3]", "value": "binds"}, {"measurement": "binding", "setting": "[4]", "value": "binds"}]}
{"molecule": "B3", "values": [{"measurement": "binding", "setting": "[5]", "value": "binds"}]}
{"molecule": "B4", "values": [{"measurement": "binding", "setting": "[6]", "value": "binds"}]}
{"molecule": "B5", "values": [{"measurement": "binding", "setting": "[7]", "value": "binds"}]}
{"molecule": "B6", "values": [{"measurement": "binding", "setting": "[8]", "value": "binds"}]}
